# Plain letter strings leave the end groups untold.
# Assay: peptide made by a vendor (Fmoc solid-phase peptide synthesis)
# Conditions: whole synthesis
sequence,measurement,value
HSLGKWLGHPDKF,final HPLC purity,>95%

# From patent US11090355B2 (BIOINCEPT, LLC, priority 2015, dated 2021)
